From patent US20110244493A1 (COMMONWEALTH MEDICAL COLLEGE, published 2011)
Results are given in words; binding and its absence hold for the method and conditions named. In cells and extracts the contact can be indirect. Some entries that bind do so weakly or less than the wild type.

Sequences of proteins named here, by UniProt entry; tags and fusion partners are left off. A change or cut given only in a name is not applied to a line headed by its entry.
UniProt Q9UIJ5: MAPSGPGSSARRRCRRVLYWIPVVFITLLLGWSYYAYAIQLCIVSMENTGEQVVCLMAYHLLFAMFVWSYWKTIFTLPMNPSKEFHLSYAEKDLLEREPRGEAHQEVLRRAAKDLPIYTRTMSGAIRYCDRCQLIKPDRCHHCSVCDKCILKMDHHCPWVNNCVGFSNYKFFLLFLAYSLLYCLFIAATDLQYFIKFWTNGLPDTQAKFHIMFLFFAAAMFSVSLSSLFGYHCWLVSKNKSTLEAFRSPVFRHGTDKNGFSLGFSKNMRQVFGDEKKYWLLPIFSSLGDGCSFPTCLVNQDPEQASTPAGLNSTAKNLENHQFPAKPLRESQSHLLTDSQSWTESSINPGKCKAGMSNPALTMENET
UniProt Q07065: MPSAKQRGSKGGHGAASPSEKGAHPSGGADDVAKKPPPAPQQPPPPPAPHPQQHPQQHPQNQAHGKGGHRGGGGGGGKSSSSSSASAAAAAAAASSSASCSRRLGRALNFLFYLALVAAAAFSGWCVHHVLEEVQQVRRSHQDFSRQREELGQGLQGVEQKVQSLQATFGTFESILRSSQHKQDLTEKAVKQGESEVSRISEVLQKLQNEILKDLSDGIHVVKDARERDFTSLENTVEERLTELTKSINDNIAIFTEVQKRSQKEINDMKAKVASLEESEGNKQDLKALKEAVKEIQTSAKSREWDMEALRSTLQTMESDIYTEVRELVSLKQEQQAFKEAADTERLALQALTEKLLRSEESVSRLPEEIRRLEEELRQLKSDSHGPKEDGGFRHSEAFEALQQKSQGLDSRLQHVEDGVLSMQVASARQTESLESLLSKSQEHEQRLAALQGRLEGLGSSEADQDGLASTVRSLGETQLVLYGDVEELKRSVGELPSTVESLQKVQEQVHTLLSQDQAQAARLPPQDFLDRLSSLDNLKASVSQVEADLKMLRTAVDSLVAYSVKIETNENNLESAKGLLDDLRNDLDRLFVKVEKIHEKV

Biological target: CFP-tagged DHHC2 (Homo sapiens) (UniProt Q9UIJ5)
Assay: co-immunoprecipitation from HeLa lysates with anti-GFP mAb, Western blot with anti-CKAP4 antibody

binding: binds
Substance: cytoskeletal associated protein 4 (CKAP4), endogenous in HeLa or normal bladder epithelial cells (from UniProt Q07065 1-602) (receptor)
